Values joined by “and” are separate entries in the source; they are usually repeats but may differ in a detail not shown here. Identical values can stand only once. At least one peptide structure holds a part that was inferred or is arguable (an end, a ring closure or a residue). Non-standard residues stand in square brackets, D forms with d. Residues, ends and D or L forms follow the SMILES beside them. NMe(dihydroBmt) = CCCC[C@@H](C)[C@@H](O)[C@H](NC)C(=O)O; dNMeGly(SMe) = CN[C@H](SC)C(=O)O; NMeL = CN[C@@H](CC(C)C)C(=O)O; NMeV = CN[C@H](C(=O)O)C(C)C
How the values were obtained:
adjuvant arthritis = experiment: Test 2: adjuvant arthritis test (established and developing) in the rat; assay type: in vivo; details: p.o.; for TEST 2 ED50, developing arthritis: * result for developing arthritis; for TEST 2 ED50, established arthritis: ** result for established arthritis
[1] = tested on: lymphocytes [mouse (Balb/c) spleen cells]; experiment: Test 1.3: mixed lymphocyte reaction (Bach et al.); assay type: cell-based; details: mouse (Balb/c) spleen cells co-incubated 5 days with irradiated CBA spleen cells

| Structure (SMILES) | TEST 2 ED50, developing arthritis (adjuvant arthritis) | TEST 1.3 IC50 [1] [µg/mL] | TEST 2 ED50, established arthritis (adjuvant arthritis) [mg/kg p.o.] |
| --- | --- | --- | --- |
| CCCC[C@@H](C)[C@@H](O)[C@H]1C(=O)N[C@@H](C(C)C)C(=O)N(C)[C@H](SC)C(=O)N(C)[C@@H](CC(C)C)C(=O)N[C@@H](C(C)C)C(=O)N(C)[C@@H](CC(C)C)C(=O)N[C@@H](C)C(=O)N[C@H](C)C(=O)N(C)[C@@H](CC(C)C)C(=O)N(C)[C@@H](CC(C)C)C(=O)N(C)[C@@H](C(C)C)C(=O)N1C [Example 36, [Dihydro-MeBmt]^1-[Val]^2-[(D)Methylthio-Sar]^3 -Cyclosporine] (cyclo(A[dA][NMeL][NMeL][NMeV][NMe(dihydroBmt)]V[dNMeGly(SMe)][NMeL]V[NMeL])) | < 10 mg/kg p.o. and 13 mg/kg p.o. | 0.085 | – |
| C/C=C/C[C@@H](C)[C@@H](O)[C@H]1C(=O)N[C@@H](C(C)C)C(=O)N(C)[C@H](SC)C(=O)N(C)[C@@H](CC(C)C)C(=O)N[C@@H](C(C)C)C(=O)N(C)[C@@H](CC(C)C)C(=O)N[C@@H](C)C(=O)N[C@H](C)C(=O)N(C)[C@@H](CC(C)C)C(=O)N(C)[C@@H](CC(C)C)C(=O)N(C)[C@@H](C(C)C)C(=O)N1C [Example 21, [Val]^2-[(D)Methylthio-Sar]^3 -Cyclosporine] | 5 mg/kg p.o. | 0.0088 | 13 |
| C/C=C/C[C@@H](C)[C@@H](O)[C@H]1C(=O)N[C@@H](CC)C(=O)N(C)[C@H](SC)C(=O)N(C)[C@@H](CC(C)C)C(=O)N[C@@H](C(C)C)C(=O)N(C)[C@@H](CC(C)C)C(=O)N[C@@H](C)C(=O)N[C@H](C)C(=O)N(C)[C@@H](CC(C)C)C(=O)N(C)[C@@H](CC(C)C)C(=O)N(C)[C@@H](C(C)C)C(=O)N1C [Example 23] | – | 0.027 | – |
| C/C=C/C[C@@H](C)[C@@H](O)[C@H]1C(=O)N[C@@H](CC)C(=O)N(C)[C@H](C)C(=O)N(C)[C@@H](CC(C)C)C(=O)N[C@@H](C(C)C)C(=O)N(C)[C@@H](CC(C)C)C(=O)N[C@@H](C)C(=O)N[C@H](C)C(=O)N(C)[C@@H](CC(C)C)C(=O)N(C)[C@@H](CC(C)C)C(=O)N(C)[C@@H](C(C)C)C(=O)N1C [Example 1, [(D)MeAla]^3 -Cyclosporine] | 5 mg/kg p.o. | 0.026 | 19 |
